From the supplement of paper PMC12819154, “High-throughput peptide-centric local stability assay extends protein–ligand identification to membrane proteins, tissues and bacteria” (Nature Structural & Molecular Biology, 2025) come the findings set out here.

Amino acid sequences for entries named in this document (tags omitted). A change or cut given only in a name is not applied to a line headed by its entry.
UniProt Q8CAQ8: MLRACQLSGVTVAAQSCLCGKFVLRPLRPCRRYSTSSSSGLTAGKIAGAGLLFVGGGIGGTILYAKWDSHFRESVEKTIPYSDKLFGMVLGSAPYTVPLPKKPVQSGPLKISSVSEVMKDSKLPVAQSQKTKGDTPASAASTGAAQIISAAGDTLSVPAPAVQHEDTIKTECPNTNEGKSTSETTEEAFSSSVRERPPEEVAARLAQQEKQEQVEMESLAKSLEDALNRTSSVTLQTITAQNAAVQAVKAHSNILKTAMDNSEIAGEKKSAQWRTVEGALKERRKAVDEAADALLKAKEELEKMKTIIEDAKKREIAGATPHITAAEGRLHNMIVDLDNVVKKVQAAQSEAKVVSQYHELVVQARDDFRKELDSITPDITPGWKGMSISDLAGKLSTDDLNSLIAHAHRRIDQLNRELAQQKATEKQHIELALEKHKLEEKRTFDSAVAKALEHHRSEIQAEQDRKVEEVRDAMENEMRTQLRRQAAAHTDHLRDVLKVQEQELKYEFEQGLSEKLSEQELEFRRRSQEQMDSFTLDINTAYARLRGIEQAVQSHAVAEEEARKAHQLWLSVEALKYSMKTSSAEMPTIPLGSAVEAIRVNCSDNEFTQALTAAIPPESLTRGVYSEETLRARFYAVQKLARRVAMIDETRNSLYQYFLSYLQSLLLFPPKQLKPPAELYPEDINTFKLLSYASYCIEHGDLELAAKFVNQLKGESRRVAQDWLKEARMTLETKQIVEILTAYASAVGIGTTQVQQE
UniProt Q8CG64: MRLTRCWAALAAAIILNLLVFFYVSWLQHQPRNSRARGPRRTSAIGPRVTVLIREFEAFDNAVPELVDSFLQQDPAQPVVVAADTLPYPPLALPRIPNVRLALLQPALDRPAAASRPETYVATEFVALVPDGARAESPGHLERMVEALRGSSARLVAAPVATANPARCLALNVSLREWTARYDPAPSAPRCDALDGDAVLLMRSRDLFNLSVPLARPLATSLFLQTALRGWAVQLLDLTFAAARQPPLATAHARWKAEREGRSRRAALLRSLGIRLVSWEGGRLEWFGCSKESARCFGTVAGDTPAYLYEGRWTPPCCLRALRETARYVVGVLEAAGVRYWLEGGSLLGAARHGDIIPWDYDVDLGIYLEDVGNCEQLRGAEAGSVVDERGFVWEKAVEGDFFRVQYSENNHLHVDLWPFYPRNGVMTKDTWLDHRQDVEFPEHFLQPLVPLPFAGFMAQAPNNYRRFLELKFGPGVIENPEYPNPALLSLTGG
UniProt Q8C878: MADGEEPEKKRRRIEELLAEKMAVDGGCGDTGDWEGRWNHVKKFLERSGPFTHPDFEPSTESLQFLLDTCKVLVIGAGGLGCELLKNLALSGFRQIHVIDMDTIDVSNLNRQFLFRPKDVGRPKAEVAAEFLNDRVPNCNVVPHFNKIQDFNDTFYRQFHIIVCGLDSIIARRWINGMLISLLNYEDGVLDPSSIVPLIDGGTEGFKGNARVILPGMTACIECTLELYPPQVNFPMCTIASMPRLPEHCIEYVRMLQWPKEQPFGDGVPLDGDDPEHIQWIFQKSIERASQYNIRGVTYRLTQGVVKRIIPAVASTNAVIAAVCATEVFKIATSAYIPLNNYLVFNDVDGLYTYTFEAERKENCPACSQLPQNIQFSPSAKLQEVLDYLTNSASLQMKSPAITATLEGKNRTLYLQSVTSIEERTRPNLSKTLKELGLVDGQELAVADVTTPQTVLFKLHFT
UniProt Q8C3X8: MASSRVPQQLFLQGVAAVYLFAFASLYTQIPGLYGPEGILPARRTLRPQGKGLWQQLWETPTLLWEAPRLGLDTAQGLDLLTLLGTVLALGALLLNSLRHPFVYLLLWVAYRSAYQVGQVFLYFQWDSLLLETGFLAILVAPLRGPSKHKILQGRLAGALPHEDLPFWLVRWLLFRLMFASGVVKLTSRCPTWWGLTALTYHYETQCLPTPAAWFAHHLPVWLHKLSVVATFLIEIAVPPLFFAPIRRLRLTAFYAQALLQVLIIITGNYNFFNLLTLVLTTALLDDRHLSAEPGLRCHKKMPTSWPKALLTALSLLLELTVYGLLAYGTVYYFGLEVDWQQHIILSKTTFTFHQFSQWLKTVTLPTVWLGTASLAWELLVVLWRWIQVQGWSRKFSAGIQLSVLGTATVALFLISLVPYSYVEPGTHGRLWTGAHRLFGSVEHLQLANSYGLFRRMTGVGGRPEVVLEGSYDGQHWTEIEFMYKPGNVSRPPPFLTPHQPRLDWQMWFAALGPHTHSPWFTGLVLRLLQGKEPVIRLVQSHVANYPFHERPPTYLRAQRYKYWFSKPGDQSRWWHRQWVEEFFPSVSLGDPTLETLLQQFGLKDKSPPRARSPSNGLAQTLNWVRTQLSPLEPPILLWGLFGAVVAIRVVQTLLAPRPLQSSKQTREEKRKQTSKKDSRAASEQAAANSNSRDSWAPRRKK
UniProt Q8C0I1: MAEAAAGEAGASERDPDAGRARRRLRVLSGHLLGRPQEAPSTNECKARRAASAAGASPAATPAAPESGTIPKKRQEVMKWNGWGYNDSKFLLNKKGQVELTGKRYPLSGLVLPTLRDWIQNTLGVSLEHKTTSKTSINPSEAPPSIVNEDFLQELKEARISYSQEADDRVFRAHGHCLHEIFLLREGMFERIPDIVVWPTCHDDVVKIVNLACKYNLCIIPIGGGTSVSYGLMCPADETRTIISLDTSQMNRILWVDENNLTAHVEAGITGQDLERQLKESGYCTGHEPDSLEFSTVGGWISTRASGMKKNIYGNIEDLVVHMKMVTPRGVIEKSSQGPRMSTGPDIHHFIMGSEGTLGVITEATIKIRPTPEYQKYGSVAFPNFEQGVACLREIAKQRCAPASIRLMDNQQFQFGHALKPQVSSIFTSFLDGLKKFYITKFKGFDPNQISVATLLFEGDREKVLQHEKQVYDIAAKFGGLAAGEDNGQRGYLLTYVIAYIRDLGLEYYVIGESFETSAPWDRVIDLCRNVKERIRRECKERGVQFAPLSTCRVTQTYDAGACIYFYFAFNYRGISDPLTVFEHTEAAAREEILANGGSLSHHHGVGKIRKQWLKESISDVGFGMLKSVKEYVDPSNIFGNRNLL
UniProt Q8C522: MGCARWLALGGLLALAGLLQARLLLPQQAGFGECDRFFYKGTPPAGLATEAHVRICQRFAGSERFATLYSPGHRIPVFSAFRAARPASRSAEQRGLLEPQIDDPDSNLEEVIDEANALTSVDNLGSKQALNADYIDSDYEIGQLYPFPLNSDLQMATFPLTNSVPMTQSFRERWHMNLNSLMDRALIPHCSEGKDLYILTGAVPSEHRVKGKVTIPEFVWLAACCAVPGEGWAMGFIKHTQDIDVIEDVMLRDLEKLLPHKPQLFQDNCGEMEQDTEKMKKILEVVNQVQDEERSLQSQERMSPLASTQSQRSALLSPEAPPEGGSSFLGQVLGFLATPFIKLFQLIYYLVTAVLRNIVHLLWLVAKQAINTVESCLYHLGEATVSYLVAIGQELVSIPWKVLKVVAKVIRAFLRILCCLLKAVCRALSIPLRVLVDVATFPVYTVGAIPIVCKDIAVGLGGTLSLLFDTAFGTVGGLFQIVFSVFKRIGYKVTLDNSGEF
UniProt Q8C7X2: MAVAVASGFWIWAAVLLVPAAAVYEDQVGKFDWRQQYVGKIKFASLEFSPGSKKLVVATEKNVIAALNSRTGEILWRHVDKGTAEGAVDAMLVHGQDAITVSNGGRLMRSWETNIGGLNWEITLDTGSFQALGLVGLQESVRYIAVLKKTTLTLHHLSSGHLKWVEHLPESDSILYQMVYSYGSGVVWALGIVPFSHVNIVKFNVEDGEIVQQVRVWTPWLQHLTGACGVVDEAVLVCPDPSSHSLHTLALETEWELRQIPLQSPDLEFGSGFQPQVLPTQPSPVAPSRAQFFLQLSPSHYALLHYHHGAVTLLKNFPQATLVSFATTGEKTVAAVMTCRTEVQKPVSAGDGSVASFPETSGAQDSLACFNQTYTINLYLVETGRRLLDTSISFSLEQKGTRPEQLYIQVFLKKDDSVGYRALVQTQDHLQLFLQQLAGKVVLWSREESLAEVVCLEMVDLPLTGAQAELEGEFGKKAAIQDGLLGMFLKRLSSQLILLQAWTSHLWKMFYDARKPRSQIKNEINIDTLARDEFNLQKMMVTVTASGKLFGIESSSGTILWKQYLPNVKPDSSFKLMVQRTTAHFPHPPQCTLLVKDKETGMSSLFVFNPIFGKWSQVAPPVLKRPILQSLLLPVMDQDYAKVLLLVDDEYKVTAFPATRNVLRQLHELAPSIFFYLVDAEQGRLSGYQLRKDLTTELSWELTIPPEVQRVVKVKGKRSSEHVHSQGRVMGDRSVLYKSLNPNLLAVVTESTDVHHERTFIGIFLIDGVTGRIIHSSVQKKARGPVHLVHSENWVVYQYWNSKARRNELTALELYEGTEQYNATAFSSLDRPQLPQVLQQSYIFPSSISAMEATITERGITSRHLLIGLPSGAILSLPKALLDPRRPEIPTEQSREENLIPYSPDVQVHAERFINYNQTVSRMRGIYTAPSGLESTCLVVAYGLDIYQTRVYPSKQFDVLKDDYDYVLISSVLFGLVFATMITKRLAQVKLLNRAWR
UniProt Q8BK08: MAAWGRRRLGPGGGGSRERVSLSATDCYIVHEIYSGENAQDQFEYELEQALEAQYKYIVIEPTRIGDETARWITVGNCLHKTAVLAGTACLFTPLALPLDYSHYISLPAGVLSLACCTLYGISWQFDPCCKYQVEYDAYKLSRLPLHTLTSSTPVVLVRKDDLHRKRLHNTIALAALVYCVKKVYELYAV
UniProt Q8BTE5: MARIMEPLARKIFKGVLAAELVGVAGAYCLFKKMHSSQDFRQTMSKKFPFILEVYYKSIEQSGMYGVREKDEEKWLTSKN
UniProt Q8BQ47: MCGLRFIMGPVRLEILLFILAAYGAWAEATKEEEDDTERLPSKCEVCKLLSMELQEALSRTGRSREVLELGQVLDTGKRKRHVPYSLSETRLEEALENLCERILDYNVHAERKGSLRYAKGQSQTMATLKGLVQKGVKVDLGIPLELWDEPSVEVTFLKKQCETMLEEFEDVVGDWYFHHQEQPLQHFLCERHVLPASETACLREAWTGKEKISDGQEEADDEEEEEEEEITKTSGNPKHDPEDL
UniProt Q8C1M2: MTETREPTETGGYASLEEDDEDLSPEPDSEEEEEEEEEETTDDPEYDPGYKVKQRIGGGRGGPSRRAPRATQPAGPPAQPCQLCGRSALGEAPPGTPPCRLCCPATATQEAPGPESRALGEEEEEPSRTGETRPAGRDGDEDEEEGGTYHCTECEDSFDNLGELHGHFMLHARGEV
UniProt Q8BX80: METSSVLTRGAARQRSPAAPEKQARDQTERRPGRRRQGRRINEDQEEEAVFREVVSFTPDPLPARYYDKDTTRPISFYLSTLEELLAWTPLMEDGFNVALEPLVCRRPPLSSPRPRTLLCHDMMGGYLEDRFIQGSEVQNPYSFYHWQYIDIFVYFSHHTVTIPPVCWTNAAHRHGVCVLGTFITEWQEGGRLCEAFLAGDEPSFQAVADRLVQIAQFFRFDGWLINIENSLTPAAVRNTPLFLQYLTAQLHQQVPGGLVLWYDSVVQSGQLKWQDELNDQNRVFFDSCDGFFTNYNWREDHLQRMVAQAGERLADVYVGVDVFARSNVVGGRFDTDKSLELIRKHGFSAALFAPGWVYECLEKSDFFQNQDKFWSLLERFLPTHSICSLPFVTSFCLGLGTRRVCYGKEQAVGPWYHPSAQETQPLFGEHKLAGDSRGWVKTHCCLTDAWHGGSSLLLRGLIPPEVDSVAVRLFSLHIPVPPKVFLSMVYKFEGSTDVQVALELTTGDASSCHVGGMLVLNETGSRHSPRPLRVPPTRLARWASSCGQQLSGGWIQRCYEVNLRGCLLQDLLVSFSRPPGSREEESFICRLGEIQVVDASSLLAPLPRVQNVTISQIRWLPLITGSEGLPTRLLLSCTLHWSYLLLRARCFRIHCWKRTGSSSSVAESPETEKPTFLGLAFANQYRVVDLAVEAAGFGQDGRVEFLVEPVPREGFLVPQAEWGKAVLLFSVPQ
UniProt Q8C166: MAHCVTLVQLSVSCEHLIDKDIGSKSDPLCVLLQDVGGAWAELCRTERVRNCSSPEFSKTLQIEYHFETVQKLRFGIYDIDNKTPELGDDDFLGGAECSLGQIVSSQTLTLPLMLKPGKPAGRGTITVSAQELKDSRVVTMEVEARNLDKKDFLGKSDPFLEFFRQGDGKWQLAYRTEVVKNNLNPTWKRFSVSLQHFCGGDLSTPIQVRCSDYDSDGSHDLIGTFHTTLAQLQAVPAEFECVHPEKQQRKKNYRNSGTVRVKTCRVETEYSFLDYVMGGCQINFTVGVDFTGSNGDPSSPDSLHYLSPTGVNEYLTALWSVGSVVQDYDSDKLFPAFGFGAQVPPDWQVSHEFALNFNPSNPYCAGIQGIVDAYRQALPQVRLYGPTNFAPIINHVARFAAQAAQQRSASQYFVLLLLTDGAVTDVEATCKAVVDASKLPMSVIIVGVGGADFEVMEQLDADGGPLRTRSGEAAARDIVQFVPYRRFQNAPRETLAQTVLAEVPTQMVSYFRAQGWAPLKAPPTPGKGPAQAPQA

This is one part of the list. Small differences around the control level are noise.

Compound in the assay: CN[C@@H]1C[C@H]2O[C@@](C)([C@@H]1OC)n1c3ccccc3c3c4c(c5c6ccccc6n2c5c31)C(=O)NC4 [staurosporine]
Nature of the assay: log2 fold change of pooled soluble protein (PISA), ligand vs vehicle (log2 ratio); higher = more thermally stabilized. The conditions noted are these: ligand concentration: 20 uM; assay format: PISA pool 52.9/55.5/58.6 C.
For UniProt Q8CAQ8, the “log2 fold change of pooled soluble protein” value (from here on “log2 fold change”) is -0.0573.

On to UniProt Q8BHJ9, for which the “log2 fold change” value is -0.112.

On to UniProt Q8CG64, for which the “log2 fold change” value is -0.301.

For the target UniProt Q8C878, the “log2 fold change” value turned out to be 0.0328.

With UniProt Q8CAF4, the “log2 fold change” value is -0.125.

For UniProt Q8C3X8, the “log2 fold change” value was 0.0817.

In the case of UniProt Q8C0I1, the “log2 fold change” value was 0.0483.

In the case of UniProt Q8C522, the “log2 fold change” value was -0.209.

Regarding UniProt Q8C7X2, the “log2 fold change” value was -0.113.

With UniProt Q8BK08, the “log2 fold change” value amounted to 0.000683.

Turning to UniProt Q8BHL3, the “log2 fold change” value is -0.261.

On to UniProt Q8BY87, for which the “log2 fold change” value was -0.179.

Regarding UniProt Q8BTE5, the “log2 fold change” value is -0.227.

As to UniProt Q8BTR5, the “log2 fold change” value was -0.0379.

On to UniProt Q8C525, for which the “log2 fold change” value is -0.00588.

On to UniProt Q8BSY0, for which the “log2 fold change” value is 0.0507.

As for UniProt Q8BRM2, the “log2 fold change” value is 0.357.

Regarding UniProt Q8BK75, the “log2 fold change” value is 0.0111.

Consider UniProt Q8BT14, for which the “log2 fold change” value was -0.0592.

With UniProt Q8C9B9, the “log2 fold change” value was determined as 0.0232.

On to UniProt Q8BQ47, for which the “log2 fold change” value was -0.0913.

Turning to Q8BPB0;Q921Y0, the “log2 fold change” value was -0.122.

As to UniProt Q8BK48, the “log2 fold change” value was -0.0165.

For UniProt Q8BWN8, the “log2 fold change” value turned out to be 0.217.

For the target UniProt Q8C0L6, the “log2 fold change” value stood at 0.294.

Consider UniProt Q8BX90, for which the “log2 fold change” value was -0.332.

As for UniProt Q8C0M9, the “log2 fold change” value was 0.0397.

On to UniProt Q8C407, for which the “log2 fold change” value was -0.0674.

Turning to UniProt Q8CAS9, the “log2 fold change” value worked out at 0.0603.

With UniProt Q8BHA3, the “log2 fold change” value amounted to 0.128.

UniProt Q8BP48: the “log2 fold change” value came out at 0.0168.

Regarding UniProt Q8C7G5, the “log2 fold change” value is -0.027.

For the target UniProt Q8C5H8, the “log2 fold change” value is -0.0101.

As for UniProt Q8C1M2, the “log2 fold change” value is -0.0617.

Take UniProt Q8BX80: the “log2 fold change” value stood at 0.113.

Consider UniProt Q8CBC6, for which the “log2 fold change” value turned out to be 0.253.

On to UniProt Q8C166, for which the “log2 fold change” value is -0.0213.
